Test results: PubChem BioAssay AID328 (DTP/NCI, 2004)
The list does not hold the whole screen: it is rich in T/C values a quarter to a half above the control, in often repeated tests (any T/C) and in doses without a T/C. Further doses and runs are listed elsewhere. T/C gives the treated animals as a percentage of the vehicle group. Some doses have a count of surviving animals in place of a T/C: the source holds a T/C of zero for them, seemingly a mark for toxic or unscored doses. Some survivor counts are full or nearly so, which does not show that the dose was tolerated: the source hardly ever lists a survival T/C far under the control, and the zero likely stands for such cases as well. Counts of survivors are from the toxicity check (mostly the fifth day) where no day follows; animals may have died later. Schedule codes are those of the source, taken here to give the interval after Q, in days (D) or hours (H), and the number of doses after X. Some doses were run more than once; their values stand side by side, smallest first. For survival time, the PubChem record calls one and a half times the control and up active, and a quarter to a half above the control has no call in these data; cut-offs in other NCI protocols can differ. Signs of the kind (2×) give the number of equal values in this list. Some T/C values are followed by the survivors on the day toxicity was checked, most often the fifth; without a count, all were alive then.

Tested on: BDF1 mice, P388 leukemia ip, median survival T/C
Experiment: NCI In Vivo Anticancer Drug Screen. Data for tumor model P388 Leukemia (intraperitoneal) in B6D2F1 (BDF1) mice
Settings: T/C endpoint: median survival time, higher T/C = longer survival
Experimental: The antitumor activity of compounds was measured in mice bearing transplantable tumors. Survival or tumor size were measured and the results are expressed as the measurement made in the treated group (T) divided by the measurement made in the vehicle treated control group (C). The tumor model used in this assay is P388 Leukemia (intraperitoneal) in B6D2F1 (BDF1) mice

[1] = dose: 25.0 mg/kg/injection, schedule: Q01DX009 (ip), vehicle: Klucel (hydroxypropylcellulose) (HPC)
[2] = dose: 150.0 mg/kg/injection, schedule: Q01DX009 (ip), vehicle: saline with Tween-80
[3] = dose: 400.0 mg/kg/injection, schedule: Q01DX009 (ip), vehicle: saline with Tween-80
[4] = dose: 200.0 mg/kg/injection, schedule: Q01DX009 (ip), vehicle: saline with Tween-80
[5] = dose: 300.0 mg/kg/injection, schedule: Q01DX009 (ip), vehicle: saline with Tween-80
[6] = dose: 400.0 mg/kg/injection, schedule: Q04DX003 (ip), vehicle: saline with Tween-80
[7] = dose: 100.0 mg/kg/injection, schedule: Q01DX009 (ip), vehicle: saline with Tween-80
[8] = dose: 50.0 mg/kg/injection, schedule: Q01DX009 (ip), vehicle: saline with Tween-80
[9] = dose: 200.0 mg/kg/injection, schedule: Q04DX003 (ip), vehicle: saline with Tween-80
[10] = dose: 50.0 mg/kg/injection, schedule: Q01DX009 (ip), vehicle: saline
[11] = dose: 100.0 mg/kg/injection, schedule: Q01DX009 (ip), vehicle: Klucel (hydroxypropylcellulose) (HPC)

**Q.** O=NN(CCCl)C(=O)Nc1ccc2c3c(cccc13)-c1ccccc1-2 was tested. Which T/C [1] did it give?
**A.** 142 % of control

**Q.** With CC(=O)Nc1ccc(C(=O)O)c([N+](=O)[O-])c1 as the molecule, how does the T/C (dose: 200.0 mg/kg/injection, schedule: Q01DX009 (ip), vehicle: saline) read?
**A.** 125 % of control

**Q.** And the survivor count (dose: 400.0 mg/kg/injection, schedule: Q01DX009 (ip), vehicle: saline)?
**A.** 4 of 6

**Q.** With CCCC1([N+](C)(C)C)CSC1CC (stereo unspecified) as the molecule, how does the survivor count (dose: 100.0 mg/kg/injection, schedule: Q04DX002 (ip), vehicle: saline with Tween-80) read?
**A.** 4 of 6

**Q.** And the survivor count (dose: 200.0 mg/kg/injection, schedule: Q04DX002 (ip), vehicle: saline with Tween-80)?
**A.** 0 of 6

**Q.** And the survivor count (dose: 400.0 mg/kg/injection, schedule: Q04DX002 (ip), vehicle: saline with Tween-80)?
**A.** 0 of 6

**Q.** For CN(C)CCC(=O)c1ccc(Cl)cc1, which survivor count [2] is on record?
**A.** 2 of 6

**Q.** For Nc1c(Cl)cc(S(N)(=O)=O)cc1Cl, which survivor count [3] is on record?
**A.** 2 of 6

**Q.** With CC1(c2ccco2)C(=O)NC(=O)N1C(=O)CCl (stereo unspecified) as the molecule, how does the survivor count [4] read?
**A.** 2 of 6

**Q.** And the survivor count [5]?
**A.** 0 of 6

**Q.** What about the survivor count [6] of the same molecule?
**A.** 3 of 6

**Q.** Which survivor count [7] does the source give for C=CCN1CSC(=S)N(CC=C)C1 here?
**A.** 3 of 6

**Q.** And the survivor count [4]?
**A.** 1 of 6

**Q.** What does the source list for Cc1csc(/N=C/c2ccc([N+](=O)[O-])o2)n1?
**A.** T/C [8]: 140 % of control [5 of 6 alive]; survivor count [7]: 4 of 6; survivor count [4]: 0 of 6; survivor count [9]: 4 of 6; survivor count [6]: 1 of 6

**Q.** What does the source list for C=CC(=O)c1c(O)cc(O)c2c1C(C)C(=O)O2 (stereo unspecified)?
**A.** survivor count (dose: 150.0 mg/kg/injection, schedule: Q01DX009 (ip), vehicle: Klucel (hydroxypropylcellulose) (HPC)): 2 of 6; survivor count (dose: 300.0 mg/kg/injection, schedule: Q01DX009 (ip), vehicle: Klucel (hydroxypropylcellulose) (HPC)): 0 of 6

**Q.** With O=C1C(C2OC2c2ccccc2)CCCC1C1OC1c1ccccc1 (stereo unspecified) as the molecule, how does the survivor count [7] read?
**A.** 6 of 6

**Q.** Which T/C [8] does the source give for CC(=O)OC1CCC2(C)C(CC(=O)C(C)C23CCC2(C=COC2)O3)C1(C)C (stereo unspecified) here?
**A.** 143 % of control

**Q.** Which results are given for COC(=O)c1ccc(CSc2ccccc2NC(=S)Nc2cccc(C(F)(F)F)c2)o1?
**A.** survivor count [8]: 6 of 6; survivor count [7]: 6 of 6

**Q.** With O=C(Nc1cc(Cl)c(NC(=O)c2ccccc2)c(Cl)c1)c1ccccc1 as the molecule, how does the survivor count (dose: 50.0 mg/kg/injection, schedule: Q01DX001 (ip), vehicle: saline with Tween-80) read?
**A.** 6 of 6

**Q.** CCc1cccc(CC)c1-n1c(C)ccc1-c1ccccc1 was tested. Which survivor count (dose: 400.0 mg/kg/injection, schedule: Q01DX009 (ip), vehicle: saline + alcohol) did it give?
**A.** 5 of 6

**Q.** CCSCCSCC was tested. Which survivor count [3] did it give?
**A.** 6 of 6

**Q.** Which T/C (dose: 265.0 mg/kg/injection, schedule: Q04DX003 (ip), vehicle: Klucel (hydroxypropylcellulose) (HPC)) does the source give for O=C(c1ccccc1Cl)c1cccc2ccccc12 here?
**A.** 127 % of control

**Q.** CS(=O)(=O)OCCCCCOS(C)(=O)=O was tested. Which survivor count [10] did it give?
**A.** 2 of 6

**Q.** What about the survivor count (dose: 100.0 mg/kg/injection, schedule: Q04DX003 (ip), vehicle: saline) of the same molecule?
**A.** 0 of 6

**Q.** And the survivor count (dose: 200.0 mg/kg/injection, schedule: Q04DX003 (ip), vehicle: saline)?
**A.** 0 of 6

**Q.** How did the T/C (dose: 0.51 mg/kg/injection, schedule: Q01DX009 (ip), vehicle: Klucel (hydroxypropylcellulose) (HPC)) turn out when Cc1cc(C(C(N)=O)c2ccccc2)ccc1N(CCCl)CCCl (stereo unspecified) was run?
**A.** 130 % of control

**Q.** What about the T/C (dose: 1.17 mg/kg/injection, schedule: Q01DX009 (ip), vehicle: Klucel (hydroxypropylcellulose) (HPC)) of the same molecule?
**A.** 140 % of control

**Q.** And the T/C (dose: 9.0 mg/kg/injection, schedule: Q04DX003 (ip), vehicle: saline)?
**A.** 136 % of control

**Q.** What about the T/C (dose: 18.75 mg/kg/injection, schedule: Q01DX009 (ip), vehicle: Klucel (hydroxypropylcellulose) (HPC)) of the same molecule?
**A.** 130 % of control

**Q.** And the survivor count (dose: 28.12 mg/kg/injection, schedule: Q01DX009 (ip), vehicle: Klucel (hydroxypropylcellulose) (HPC))?
**A.** 6 of 6

**Q.** Which T/C [4] does the source give for C[C@@H]1C[C@H]2CC[C@H](O2)[C@H](C)C(=O)O[C@@H](C)C[C@@H]2CC[C@@H](O2)[C@@H](C)C(=O)O[C@H](C)C[C@H]2CC[C@H](O2)[C@H](C)C(=O)O[C@@H](C)C[C@@H]2CC[C@@H](O2)[C@@H](C)C(=O)O1 here?
**A.** 136 % of control

**Q.** And the survivor count [6]?
**A.** 6 of 6

**Q.** How did the survivor count [2] turn out when CCN1C(=O)C(=O)c2ccccc21 was run?
**A.** 6 of 6

**Q.** What about the survivor count [5] of the same molecule?
**A.** 3 of 6

**Q.** For NC(=S)N/N=C/c1ccccn1, which T/C (dose: 0.5 mg/kg/injection, schedule: Q01DX010 (ip), vehicle: carboxymethylcellulose (CMC)) is on record?
**A.** 125 % of control

**Q.** And the T/C (dose: 0.94 mg/kg/injection, schedule: Q01DX010 (ip), vehicle: saline)?
**A.** 130 % of control

**Q.** What about the T/C (dose: 1.88 mg/kg/injection, schedule: Q01DX010 (ip), vehicle: saline) of the same molecule?
**A.** 140 % of control

**Q.** What about the T/C (dose: 4.0 mg/kg/injection, schedule: Q01DX010 (ip), vehicle: carboxymethylcellulose (CMC)) of the same molecule?
**A.** 125 % of control

**Q.** And the T/C (dose: 7.5 mg/kg/injection, schedule: Q01DX010 (ip), vehicle: saline)?
**A.** 129 % of control

**Q.** And the T/C (dose: 15.0 mg/kg/injection, schedule: Q01DX010 (ip), vehicle: saline)?
**A.** 133 % of control

**Q.** And the survivor count (dose: 16.0 mg/kg/injection, schedule: Q01DX010 (ip), vehicle: carboxymethylcellulose (CMC))?
**A.** 3 of 6

**Q.** Which results are given for CC(=O)OCCC(CCOC(C)=O)=C1N=C(c2ccccc2)OC1=O?
**A.** T/C (dose: 130.0 mg/kg/injection, schedule: Q01DX009 (ip), vehicle: saline with Tween-80): 127 % of control; T/C [4]: 125 and 136 % of control

**Q.** Which results are given for CN(C)c1ccc(/C=C\c2ccnc3ccccc23)cc1Br?
**A.** survivor count [8]: 5 of 6; survivor count [4]: 5 of 6

**Q.** Which survivor count (dose: 100.0 mg/kg/injection, schedule: Q04DX003 (ip), vehicle: saline with Tween-80) does the source give for O=C(Nc1ccc(C2=NCCN2)cc1)Nc1cccc(NC(=O)Nc2cccc(C3=NCCN3)c2)c1 here?
**A.** 5 of 6

**Q.** CCCC(=O)OCc1ccc(Cl)cc1Cl was tested. Which T/C [9] did it give?
**A.** 127 % of control

**Q.** How did the survivor count (dose: 200.0 mg/kg/injection, schedule: Q01DX005 (ip), vehicle: saline with Tween-80) turn out when COc1cc(-c2ccc(NC(=O)NC3CC3)c(OC)c2)ccc1NC(=O)NC1CC1 was run?
**A.** 5 of 5

**Q.** How did the survivor count (dose: 80.0 mg/kg/injection, schedule: Q04DX003 (ip), vehicle: saline) turn out when COCCNCCN1CCN(CCCN2c3ccccc3Sc3ccc(C(F)(F)F)cc32)CC1 was run?
**A.** 4 of 6

**Q.** Which survivor count [11] does the source give for CC(/C=C/C=C/c1ccccc1)=N\O here?
**A.** 6 of 6

**Q.** Cc1cc(C)c(S(=O)(=O)O)cc1C was tested. Which survivor count [9] did it give?
**A.** 3 of 6

**Q.** With O=c1[nH][nH]c(=O)n1O as the molecule, how does the survivor count (dose: 100.0 mg/kg/injection, schedule: Q01DX009 (ip), vehicle: saline) read?
**A.** 6 of 6

**Q.** NC(N)=N/N=C/C(Cl)Cl was tested. Which survivor count [10] did it give?
**A.** 6 of 6

**Q.** O=C(CO)c1ccc([N+](=O)[O-])cc1 was tested. Which T/C (dose: 6.25 mg/kg/injection, schedule: Q01DX009 (ip), vehicle: saline with Tween-80) did it give?
**A.** 126 % of control

**Q.** What about the T/C (dose: 12.5 mg/kg/injection, schedule: Q01DX009 (ip), vehicle: saline with Tween-80) of the same molecule?
**A.** 126 and 130 % of control

**Q.** And the T/C (dose: 25.0 mg/kg/injection, schedule: Q01DX009 (ip), vehicle: saline with Tween-80)?
**A.** 126 % of control (2×)

**Q.** What about the T/C [8] of the same molecule?
**A.** 128 and 133 % of control [4 of 6 alive]

**Q.** What about the survivor count [7] of the same molecule?
**A.** 0 of 6 and 6 of 6

**Q.** What about the survivor count [4] of the same molecule?
**A.** 0 of 6

**Q.** What does the source list for C=C1CC(c2ccc(S(=O)(=O)N3CCOCC3)cc2)OC1=O (stereo unspecified)?
**A.** T/C (dose: 12.5 mg/kg/injection, schedule: Q01DX009 (ip), vehicle: Klucel (hydroxypropylcellulose) (HPC)): 147 % of control; T/C [1]: 144 % of control; survivor count (dose: 50.0 mg/kg/injection, schedule: Q01DX009 (ip), vehicle: Klucel (hydroxypropylcellulose) (HPC)): 4 of 6; survivor count [11]: 0 of 6

**Q.** How did the survivor count (dose: 14.0 mg/kg/injection, schedule: Q01DX009 (ip), vehicle: saline with Tween-80) turn out when CO[C@H]1C[C@H](O[C@H]2CC[C@@]3(C)[C@H](CC[C@@H]4[C@@H]3CC[C@]3(C)[C@@H](C5=CC(=O)OC5)CC[C@]43O)C2)O[C@H](C)[C@H]1O was run?
**A.** 3 of 4

**Q.** For CC[C@]1(O)CC(OC2CC(N(C)C)C(O)C(C)O2)c2c(cc3c(c2O)C(=O)c2c(O)cccc2C3=O)[C@@H]1C(=O)OC (stereo partly specified), which survivor count (dose: 5.0 mg/kg/injection, schedule: Q01DX001 (ip), vehicle: saline) is on record?
**A.** 3 of 6
